Measurements as given in the supplement of paper PMC10849652.
The other results are listed elsewhere or left out.

The chains behind the UniProt entries cited, without tags or fusion partners. Where a name states a change or a piece, a line headed by the entry shows the natural chain unless it says otherwise.
UniProt P24311, whole entry, looked up: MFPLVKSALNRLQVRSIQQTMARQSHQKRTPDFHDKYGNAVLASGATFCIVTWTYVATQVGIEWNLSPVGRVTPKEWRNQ
UniProt P49747: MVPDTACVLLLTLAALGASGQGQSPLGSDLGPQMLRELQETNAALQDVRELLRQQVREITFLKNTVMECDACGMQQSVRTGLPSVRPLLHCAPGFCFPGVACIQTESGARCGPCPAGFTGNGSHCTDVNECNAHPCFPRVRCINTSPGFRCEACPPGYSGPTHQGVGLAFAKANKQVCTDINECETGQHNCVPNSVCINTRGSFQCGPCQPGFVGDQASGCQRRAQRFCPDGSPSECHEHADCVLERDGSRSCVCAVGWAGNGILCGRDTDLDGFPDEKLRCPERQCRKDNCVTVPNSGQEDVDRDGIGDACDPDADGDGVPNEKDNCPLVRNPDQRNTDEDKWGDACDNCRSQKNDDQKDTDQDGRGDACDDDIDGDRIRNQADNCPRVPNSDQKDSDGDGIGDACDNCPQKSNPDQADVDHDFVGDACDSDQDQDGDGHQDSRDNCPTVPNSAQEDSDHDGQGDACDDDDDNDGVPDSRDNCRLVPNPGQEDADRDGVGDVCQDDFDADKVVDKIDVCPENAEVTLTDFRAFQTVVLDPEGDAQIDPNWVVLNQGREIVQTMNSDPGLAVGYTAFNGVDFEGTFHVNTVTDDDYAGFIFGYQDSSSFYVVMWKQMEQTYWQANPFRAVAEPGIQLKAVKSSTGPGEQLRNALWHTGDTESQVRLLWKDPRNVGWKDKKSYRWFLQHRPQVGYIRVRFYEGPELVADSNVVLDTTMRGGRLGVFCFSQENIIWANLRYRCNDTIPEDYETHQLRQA
UniProt Q9H3G5: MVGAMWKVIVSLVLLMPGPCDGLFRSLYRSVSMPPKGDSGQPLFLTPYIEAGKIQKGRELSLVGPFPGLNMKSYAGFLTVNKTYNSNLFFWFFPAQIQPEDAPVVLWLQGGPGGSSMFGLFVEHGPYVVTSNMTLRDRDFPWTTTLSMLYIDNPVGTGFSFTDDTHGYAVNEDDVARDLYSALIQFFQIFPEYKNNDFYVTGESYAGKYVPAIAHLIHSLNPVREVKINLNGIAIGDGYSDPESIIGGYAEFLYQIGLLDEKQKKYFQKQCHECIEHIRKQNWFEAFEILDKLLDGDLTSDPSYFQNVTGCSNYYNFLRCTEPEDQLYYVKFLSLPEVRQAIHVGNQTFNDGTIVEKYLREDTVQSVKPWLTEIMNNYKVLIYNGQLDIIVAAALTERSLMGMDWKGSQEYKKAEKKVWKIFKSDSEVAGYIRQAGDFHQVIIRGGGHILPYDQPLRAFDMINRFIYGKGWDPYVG
UniProt Q9NX08, whole entry, looked up: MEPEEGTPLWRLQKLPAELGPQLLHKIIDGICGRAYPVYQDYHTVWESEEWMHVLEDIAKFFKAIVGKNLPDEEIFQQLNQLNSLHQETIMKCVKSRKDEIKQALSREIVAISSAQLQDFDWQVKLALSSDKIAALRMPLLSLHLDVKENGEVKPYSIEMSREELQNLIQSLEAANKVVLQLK
UniProt Q9P000, whole entry, looked up: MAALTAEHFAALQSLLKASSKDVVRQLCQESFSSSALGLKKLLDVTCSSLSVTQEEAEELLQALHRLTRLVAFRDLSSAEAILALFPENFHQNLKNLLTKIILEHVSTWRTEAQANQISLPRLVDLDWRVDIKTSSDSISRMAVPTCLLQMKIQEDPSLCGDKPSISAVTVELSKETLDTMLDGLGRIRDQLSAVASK
UniProt Q96SW2: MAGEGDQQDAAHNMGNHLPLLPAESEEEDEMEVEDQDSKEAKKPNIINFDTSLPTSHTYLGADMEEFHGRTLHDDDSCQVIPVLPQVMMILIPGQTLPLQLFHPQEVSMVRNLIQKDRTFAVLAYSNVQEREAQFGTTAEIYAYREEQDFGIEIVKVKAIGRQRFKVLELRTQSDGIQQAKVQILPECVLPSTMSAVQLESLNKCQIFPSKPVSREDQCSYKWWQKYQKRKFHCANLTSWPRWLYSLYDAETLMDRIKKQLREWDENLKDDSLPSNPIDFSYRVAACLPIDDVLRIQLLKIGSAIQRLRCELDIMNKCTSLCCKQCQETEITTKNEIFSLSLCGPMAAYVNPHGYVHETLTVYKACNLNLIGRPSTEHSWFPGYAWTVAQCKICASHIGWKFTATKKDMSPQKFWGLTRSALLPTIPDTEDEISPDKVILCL
UniProt Q03060: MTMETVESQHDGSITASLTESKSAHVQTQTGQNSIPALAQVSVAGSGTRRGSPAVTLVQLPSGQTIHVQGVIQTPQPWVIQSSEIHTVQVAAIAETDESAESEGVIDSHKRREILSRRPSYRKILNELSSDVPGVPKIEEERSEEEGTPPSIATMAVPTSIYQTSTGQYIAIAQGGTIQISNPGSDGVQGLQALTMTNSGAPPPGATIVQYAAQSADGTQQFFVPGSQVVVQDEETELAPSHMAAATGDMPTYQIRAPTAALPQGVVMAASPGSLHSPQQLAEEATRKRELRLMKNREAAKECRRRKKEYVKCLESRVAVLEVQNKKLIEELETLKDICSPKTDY
UniProt Q7Z5Q1: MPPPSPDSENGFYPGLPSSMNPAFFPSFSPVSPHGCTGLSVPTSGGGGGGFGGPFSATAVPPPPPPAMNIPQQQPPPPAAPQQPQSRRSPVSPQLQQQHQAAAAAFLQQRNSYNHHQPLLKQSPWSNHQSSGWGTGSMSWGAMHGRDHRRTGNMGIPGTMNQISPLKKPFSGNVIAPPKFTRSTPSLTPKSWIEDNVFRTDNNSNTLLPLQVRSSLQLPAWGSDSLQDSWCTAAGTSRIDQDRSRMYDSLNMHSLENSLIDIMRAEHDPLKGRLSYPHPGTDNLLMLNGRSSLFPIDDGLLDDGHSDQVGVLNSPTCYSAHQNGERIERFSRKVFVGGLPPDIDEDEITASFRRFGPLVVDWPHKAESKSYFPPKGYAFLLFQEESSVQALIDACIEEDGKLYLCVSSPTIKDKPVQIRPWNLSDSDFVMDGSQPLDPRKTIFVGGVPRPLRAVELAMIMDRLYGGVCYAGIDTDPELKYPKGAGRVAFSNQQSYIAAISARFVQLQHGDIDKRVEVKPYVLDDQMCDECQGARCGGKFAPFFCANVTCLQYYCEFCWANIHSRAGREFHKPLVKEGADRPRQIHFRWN
UniProt Q49B96: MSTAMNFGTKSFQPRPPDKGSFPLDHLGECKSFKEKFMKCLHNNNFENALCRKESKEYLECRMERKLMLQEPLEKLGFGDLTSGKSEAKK
UniProt O75718: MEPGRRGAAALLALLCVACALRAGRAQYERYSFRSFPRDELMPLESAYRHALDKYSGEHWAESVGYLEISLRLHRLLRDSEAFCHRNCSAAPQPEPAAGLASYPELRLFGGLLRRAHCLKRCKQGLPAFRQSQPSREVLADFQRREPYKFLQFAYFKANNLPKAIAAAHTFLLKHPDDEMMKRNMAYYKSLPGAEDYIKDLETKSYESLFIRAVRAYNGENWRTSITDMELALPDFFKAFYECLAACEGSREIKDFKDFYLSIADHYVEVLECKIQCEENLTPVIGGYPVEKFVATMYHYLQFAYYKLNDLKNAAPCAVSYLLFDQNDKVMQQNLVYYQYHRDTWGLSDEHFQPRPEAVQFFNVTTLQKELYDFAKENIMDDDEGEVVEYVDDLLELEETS
UniProt P09669, whole entry, looked up: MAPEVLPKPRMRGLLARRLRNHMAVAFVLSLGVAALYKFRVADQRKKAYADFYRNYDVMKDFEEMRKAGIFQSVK
UniProt Q86VX2, whole entry, looked up: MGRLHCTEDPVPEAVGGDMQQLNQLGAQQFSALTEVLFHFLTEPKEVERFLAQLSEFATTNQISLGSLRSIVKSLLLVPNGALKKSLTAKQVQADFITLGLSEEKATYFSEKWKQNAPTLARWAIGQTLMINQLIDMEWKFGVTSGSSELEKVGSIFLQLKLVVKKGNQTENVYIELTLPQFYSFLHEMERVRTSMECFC
UniProt Q17RY0: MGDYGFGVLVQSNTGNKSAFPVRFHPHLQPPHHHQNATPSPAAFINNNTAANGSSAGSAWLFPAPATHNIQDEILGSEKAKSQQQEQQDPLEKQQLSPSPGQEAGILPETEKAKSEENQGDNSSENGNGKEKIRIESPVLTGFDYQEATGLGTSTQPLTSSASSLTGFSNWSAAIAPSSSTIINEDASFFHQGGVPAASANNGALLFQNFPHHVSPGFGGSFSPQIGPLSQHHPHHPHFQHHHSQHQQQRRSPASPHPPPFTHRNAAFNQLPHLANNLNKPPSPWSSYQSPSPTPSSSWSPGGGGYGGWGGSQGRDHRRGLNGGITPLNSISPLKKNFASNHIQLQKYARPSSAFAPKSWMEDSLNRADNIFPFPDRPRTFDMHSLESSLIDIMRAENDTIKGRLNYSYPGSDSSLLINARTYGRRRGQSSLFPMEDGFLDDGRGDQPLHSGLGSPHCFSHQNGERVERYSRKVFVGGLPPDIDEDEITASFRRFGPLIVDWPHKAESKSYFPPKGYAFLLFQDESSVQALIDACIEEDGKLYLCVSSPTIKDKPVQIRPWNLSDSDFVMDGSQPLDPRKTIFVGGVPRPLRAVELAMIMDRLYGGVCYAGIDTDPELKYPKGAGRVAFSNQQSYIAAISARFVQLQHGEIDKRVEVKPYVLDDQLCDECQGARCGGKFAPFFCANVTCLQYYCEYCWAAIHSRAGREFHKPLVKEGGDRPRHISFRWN
UniProt Q9ULV4, whole entry, looked up: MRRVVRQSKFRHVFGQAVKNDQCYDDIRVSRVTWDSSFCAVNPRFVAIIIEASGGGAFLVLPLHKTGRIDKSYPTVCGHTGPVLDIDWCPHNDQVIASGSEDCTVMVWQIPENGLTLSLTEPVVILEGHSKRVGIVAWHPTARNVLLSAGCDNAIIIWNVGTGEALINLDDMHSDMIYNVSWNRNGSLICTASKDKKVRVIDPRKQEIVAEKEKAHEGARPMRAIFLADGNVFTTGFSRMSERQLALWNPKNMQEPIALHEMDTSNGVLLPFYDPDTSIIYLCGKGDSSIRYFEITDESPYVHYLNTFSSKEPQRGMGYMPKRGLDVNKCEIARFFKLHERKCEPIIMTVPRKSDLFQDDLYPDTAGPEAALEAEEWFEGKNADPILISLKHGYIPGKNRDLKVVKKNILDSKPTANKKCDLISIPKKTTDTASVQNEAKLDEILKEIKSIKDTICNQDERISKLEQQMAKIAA
UniProt Q9BRF8, whole entry, looked up: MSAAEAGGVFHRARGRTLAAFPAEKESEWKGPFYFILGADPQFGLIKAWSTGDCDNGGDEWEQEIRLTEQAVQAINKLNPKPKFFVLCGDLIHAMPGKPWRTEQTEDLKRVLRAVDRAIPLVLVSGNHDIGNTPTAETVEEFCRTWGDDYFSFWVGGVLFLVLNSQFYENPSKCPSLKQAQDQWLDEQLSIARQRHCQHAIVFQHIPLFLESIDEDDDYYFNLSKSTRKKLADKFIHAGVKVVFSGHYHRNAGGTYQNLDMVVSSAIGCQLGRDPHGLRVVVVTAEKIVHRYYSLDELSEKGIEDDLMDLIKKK

Columns and labels:
Experiment in all cases: log2 fold change, soluble protein after heating vs DMSO (PISA); higher = thermal stabilisation; K562 cells, 10 uM, 30 min; active = over 0.2 and 3.5 SD of the protein, either way, in both replicates (recomputed)
saracatinib = compound: CN1CCN(CCOc2cc(OC3CCOCC3)c3c(Nc4c(Cl)ccc5c4OCO5)ncnc3c2)CC1 [saracatinib]
Method in brief: (§1)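 K562 cells (2×10^6 cells/mL) were treated with 10 μM compound for 30 min, and aliquots were heated for 3 min over 48°C-58°C. Pooled aliquots were extracted in PBS with 0.5% NP-40 at 4°C, and the supernatant after 21,000xg for 90 min was measured by TMTpro 16plex LC-MS/MS with channel sums equalised. Reported thermal stability, relative to control samples and from duplicates, is a log2 fold change.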

sotrastaurin = compound: CN1CCN(c2nc(C3=C(c4c[nH]c5ccccc45)C(=O)NC3=O)c3ccccc3n2)CC1 [sotrastaurin]
Method in brief: as §1

Tubastatin A = compound: CN1CCc2c(c3ccccc3n2Cc2ccc(C(=O)NO)cc2)C1 [Tubastatin A]
Method in brief: as §1

[1] = compound: CNC(=O)C1=CC=CC=C1NC2=NC(=NC=C2Cl)NC3=C(C=C(C=C3)N4CCOCC4)OC
Method in brief: as §1

defactinib = compound: CNC(=O)c1ccc(Nc2ncc(C(F)(F)F)c(NCc3nccnc3N(C)S(C)(=O)=O)n2)cc1 [defactinib]
Method in brief: as §1

rucaparib = compound: CNCc1ccc(-c2[nH]c3cc(F)cc4c3c2CCNC4=O)cc1 [rucaparib]
Method in brief: as §1

[2] = compound: CNc1nc(-c2ccc3c(N)n[nH]c3c2)cc(N2C[C@@H](C(=O)NC3CCCCC3)CC[C@H]2C)n1
Method in brief: as §1

encorafenib = compound: COC(=O)N[C@@H](C)CNc1nccc(-c2cn(C(C)C)nc2-c2cc(Cl)cc(NS(C)(=O)=O)c2F)n1 [encorafenib]
Method in brief: as §1

[3] = compound: COC(=O)[C@H](CCSC)NC(=O)C1=C(C=C(C=C1)NC[C@H](CS)N)C2=CC=CC=C2
Method in brief: as §1

[4] = compound: COC1=CC=C(C=C1)CN2C=CC3=C2C=C(C=C3)C(=O)NO
Method in brief: as §1

filanesib = compound: CON(C)C(=O)N1N=C(c2cc(F)ccc2F)S[C@@]1(CCCN)c1ccccc1 [filanesib]
Method in brief: as §1

zotarolimus = compound: CO[C@H]1C[C@@H]2CC[C@@H](C)[C@@](O)(O2)C(=O)C(=O)N2CCCC[C@H]2C(=O)O[C@H]([C@H](C)C[C@@H]2CC[C@H](n3cnnn3)[C@H](OC)C2)CC(=O)[C@H](C)/C=C(\C)[C@@H](O)[C@@H](OC)C(=O)[C@H](C)C[C@H](C)/C=C/C=C/C=C/1C [zotarolimus]
Method in brief: as §1

idasanutlin = compound: COc1cc(C(=O)O)ccc1NC(=O)[C@@H]1N[C@@H](CC(C)(C)C)[C@](C#N)(c2ccc(Cl)cc2F)[C@H]1c1cccc(Cl)c1F [idasanutlin]
Method in brief: as §1

alisertib = compound: COc1cc(Nc2ncc3c(n2)-c2ccc(Cl)cc2C(c2c(F)cccc2OC)=NC3)ccc1C(=O)O [alisertib]
Method in brief: as §1

[5] = compound: COc1cc2nc(-c3cc(F)ccc3O)nc(N[C@@H]3CNC[C@H]3C(C)(C)O)c2cc1OC
Method in brief: as §1

gefitinib = compound: COc1cc2ncnc(Nc3ccc(F)c(Cl)c3)c2cc1OCCCN1CCOCC1 [gefitinib]
Method in brief: as §1

[6] = compound: COc1cccc2cc(-c3nc([C@H]4CC[C@H](C(=O)O)CC4)n4ncnc(N)c34)[nH]c12
Method in brief: as §1

lapatinib = compound: CS(=O)(=O)CCNCc1ccc(-c2ccc3ncnc(Nc4ccc(OCc5cccc(F)c5)c(Cl)c4)c3c2)o1 [lapatinib]
Method in brief: as §1

pictilisib = compound: CS(=O)(=O)N1CCN(Cc2cc3nc(-c4cccc5[nH]ncc45)nc(N4CCOCC4)c3s2)CC1 [pictilisib]
Method in brief: as §1

alvocidib = compound: CN1CC[C@H](c2c(O)cc(O)c3c(=O)cc(-c4ccccc4Cl)oc23)[C@H](O)C1 [alvocidib]
Method in brief: as §1

Measured: log2 fold change

COX7B (UniProt P24311)
inactive: saracatinib 0.174 | sotrastaurin 0.058 | Tubastatin A -0.087 | [1] 0.059 | defactinib 0 | rucaparib -0.02 | [2] -0.049 | encorafenib -0.036 | [3] -0.073 | [4] 0.112 | filanesib 0.028 | zotarolimus -0.003 | idasanutlin -0.012 | alisertib 0.038 | [5] -0.018 | gefitinib 0.023 | [6] 0.094 | lapatinib -0.009 | pictilisib -0.039

COMP (UniProt P49747)
inactive: saracatinib 0.01 | sotrastaurin 0.39 | alvocidib 0.025 | Tubastatin A -0.073 | [1] 0.063 | rucaparib -0.146 | [2] -0.137 | encorafenib -0.097 | [4] -0.106 | filanesib 0.082 | zotarolimus -0.48 | idasanutlin 0.064 | alisertib 0.047 | [5] -0.086 | [6] 0.177 | lapatinib 0.012 | pictilisib -0.277

CPVL (UniProt Q9H3G5)
inactive: saracatinib -0.059 | sotrastaurin 0.078 | alvocidib 0.114 | Tubastatin A -0.079 | [1] -0.059 | defactinib 0.023 | rucaparib -0.284 | [2] -0.058 | encorafenib -0.047 | [3] 0.045 | [4] -0.103 | filanesib -0.012 | zotarolimus -0.121 | idasanutlin -0.003 | alisertib 0.026 | [5] -0.041 | gefitinib 0.043 | [6] 0.035 | lapatinib -0.079 | pictilisib 0.12

COMMD8 (UniProt Q9NX08)
inactive: saracatinib -0.033 | sotrastaurin -0.03 | alvocidib -0.066 | Tubastatin A 0.033 | [1] 0.063 | rucaparib 0.005 | [2] 0.092 | encorafenib 0.029 | [4] 0.127 | filanesib -0.048 | zotarolimus 0.076 | idasanutlin -0.04 | alisertib -0.034 | [5] -0.12 | gefitinib -0.009 | [6] -0.069 | lapatinib -0.073 | pictilisib 0.059

COMMD9 (UniProt Q9P000)
inactive: saracatinib -0.013 | sotrastaurin -0.007 | alvocidib -0.048 | Tubastatin A 0.072 | [1] -0.012 | defactinib -0.039 | rucaparib -0.101 | [2] 0.028 | encorafenib 0.01 | [3] -0.018 | [4] -0.107 | filanesib 0.091 | zotarolimus 0.027 | idasanutlin -0.102 | alisertib 0.013 | [5] -0.21 | gefitinib 0.02 | [6] 0.007 | lapatinib -0.152 | pictilisib 0.086

CRBN (UniProt Q96SW2)
inactive: saracatinib 0.028 | sotrastaurin 0.077 | alvocidib 0.012 | Tubastatin A -0.05 | [1] -0.004 | defactinib -0.01 | rucaparib -0.024 | [2] -0.058 | encorafenib -0.005 | [3] 0.035 | [4] -0.005 | filanesib -0.004 | zotarolimus -0.086 | idasanutlin 0.044 | alisertib -0.053 | [5] -0.013 | gefitinib -0.007 | [6] 0.076 | lapatinib 0.064 | pictilisib 0.049

CREM isoform 1 (UniProt Q03060)
inactive: saracatinib 0.067 | sotrastaurin -0.013 | alvocidib 0.146 | Tubastatin A -0.121 | [1] 0.005 | defactinib -0.032 | rucaparib -0.068 | [2] -0.057 | encorafenib -0.025 | [3] 0.014 | filanesib -0.025 | zotarolimus -0.101 | idasanutlin -0.016 | alisertib -0.056 | [5] 0.079 | gefitinib -0.022 | [6] 0.062 | lapatinib -0.01 | pictilisib 0.203

CPEB2 isoform 9 (UniProt Q7Z5Q1)
inactive: saracatinib -0.057 | sotrastaurin 0.085 | alvocidib -0.01 | Tubastatin A -0.075 | [1] -0.186 | defactinib -0.009 | [2] 0.03 | [3] -0.262 | [4] 0 | filanesib 0.017 | zotarolimus -0.174 | idasanutlin 0.209 | [5] -0.064 | lapatinib 0.058

COX19 (UniProt Q49B96)
inactive: saracatinib 0.196 | sotrastaurin 0.121 | alvocidib -0.035 | Tubastatin A 0.023 | [1] -0.025 | defactinib -0.041 | rucaparib -0.05 | [2] -0.074 | encorafenib -0.02 | [3] -0.002 | [4] -0.017 | filanesib -0.053 | zotarolimus -0.015 | idasanutlin 0.05 | alisertib -0.044 | [5] 0.007 | gefitinib 0.033 | [6] 0.057 | lapatinib -0.011 | pictilisib 0.005

CRTAP (UniProt O75718)
inactive: saracatinib -0.058 | sotrastaurin 0.008 | alvocidib 0.08 | Tubastatin A 0.029 | [1] 0.02 | defactinib 0.094 | rucaparib 0.071 | [2] -0.011 | encorafenib 0.087 | [3] -0.076 | [4] -0.029 | filanesib 0.066 | zotarolimus 0.059 | idasanutlin 0.074 | alisertib -0.152 | [5] -0.018 | gefitinib -0.001 | [6] -0.127 | lapatinib 0.149 | pictilisib -0.035

COX6C (UniProt P09669)
inactive: saracatinib -0.024 | sotrastaurin 0.037 | alvocidib -0.017 | Tubastatin A -0.017 | [1] 0.018 | defactinib 0.017 | rucaparib -0.149 | [2] -0.044 | encorafenib -0.087 | [3] 0.002 | [4] 0.09 | filanesib -0.036 | zotarolimus -0.032 | idasanutlin 0 | alisertib -0.08 | [5] 0.036 | gefitinib -0.035 | [6] 0.061 | lapatinib -0.048 | pictilisib 0.038

COMMD7 (UniProt Q86VX2)
inactive: saracatinib 0.055 | sotrastaurin 0.008 | alvocidib -0.075 | Tubastatin A -0.002 | [1] -0.055 | defactinib -0.008 | rucaparib 0 | [2] -0.022 | encorafenib 0.022 | [3] -0.005 | [4] 0.018 | filanesib 0.07 | zotarolimus 0.016 | idasanutlin -0.003 | alisertib -0.019 | [5] 0.026 | gefitinib -0.053 | [6] 0.035 | lapatinib 0.005 | pictilisib 0.053

CPEB4 (UniProt Q17RY0)
inactive: saracatinib 0.012 | sotrastaurin 0.069 | alvocidib 0.052 | Tubastatin A -0.005 | defactinib 0.076 | rucaparib 0.202 | [2] 0.007 | encorafenib 0.005 | [3] 0.068 | [4] -0.017 | filanesib 0.129 | zotarolimus -0.094 | idasanutlin 0.113 | alisertib -0.026 | [5] 0.097 | [6] -0.098 | lapatinib 0 | pictilisib 0.134

Quoted at random: 2 records from the list.
CRTAP (UniProt O75718)
inactive: saracatinib -0.058 | sotrastaurin 0.008 | alvocidib 0.08 | Tubastatin A 0.029 | [1] 0.02 | defactinib 0.094 | rucaparib 0.071 | [2] -0.011 | encorafenib 0.087 | [3] -0.076 | [4] -0.029 | filanesib 0.066 | zotarolimus 0.059 | idasanutlin 0.074 | alisertib -0.152 | [5] -0.018 | gefitinib -0.001 | [6] -0.127 | lapatinib 0.149 | pictilisib -0.035

CPEB4 (UniProt Q17RY0)
inactive: saracatinib 0.012 | sotrastaurin 0.069 | alvocidib 0.052 | Tubastatin A -0.005 | defactinib 0.076 | rucaparib 0.202 | [2] 0.007 | encorafenib 0.005 | [3] 0.068 | [4] -0.017 | filanesib 0.129 | zotarolimus -0.094 | idasanutlin 0.113 | alisertib -0.026 | [5] 0.097 | [6] -0.098 | lapatinib 0 | pictilisib 0.134

More results follow.

CORO1C isoform 3 (UniProt Q9ULV4)
inactive: saracatinib 0.032 | sotrastaurin -0.089 | alvocidib 0.023 | Tubastatin A 0 | [1] 0.017 | defactinib -0.028 | rucaparib 0.002 | [2] -0.094 | encorafenib 0.034 | [3] -0.03 | [4] 0.055 | filanesib 0.017 | zotarolimus 0.038 | idasanutlin 0.011 | alisertib -0.066 | [5] 0.07 | gefitinib 0.09 | [6] -0.003 | lapatinib 0.012 | pictilisib -0.097

COLGALT1 (UniProt Q8NBJ5)
inactive: saracatinib -0.125 | sotrastaurin -0.071 | alvocidib 0.085 | Tubastatin A 0.039 | [1] -0.004 | defactinib 0.103 | rucaparib 0.034 | [2] 0.051 | encorafenib 0.114 | [3] -0.022 | [4] -0.042 | filanesib 0.089 | zotarolimus 0.079 | idasanutlin 0.047 | alisertib -0.128 | [5] -0.002 | gefitinib -0.001 | [6] -0.117 | lapatinib 0.092 | pictilisib -0.07

CPPED1 (UniProt Q9BRF8)
inactive: saracatinib 0.029 | sotrastaurin 0.023 | alvocidib 0.001 | Tubastatin A 0.047 | [1] -0.062 | defactinib -0.013 | rucaparib -0.085 | [2] -0.077 | encorafenib 0.032 | [3] 0.02 | [4] 0.013 | filanesib -0.035 | zotarolimus -0.052 | idasanutlin 0.016 | alisertib -0.019 | [5] 0.083 | gefitinib 0.02 | [6] 0.037 | lapatinib -0.032 | pictilisib 0.045
